Test results published in paper PMC5599239.
No constants are given. Whether binding was seen depends on the method and setting. Some results given as binding are weak or reduced against the parent protein; the word gives no strength. Where a sequence is shown, tags or fusion partners need not be part of it.

B1: Tof1 (protein, UniProt P53840 1-1238)
chain: MSADLQQGTTNAADFSLTVLRARIALLATAIGGPDYTSQIDPPPYKLGDDCLACLKDLKRWFKLVDDQQKRWDVAMAVAEYRILTDDLLPILIDWENKCSLAAKLAKNNPDHEEFRNKAYYDKIALNCLQLLVLMTWPLIVTEQSSSNQITLYGELKKHQLVYKKTILSMESGKVLRAAIRLALDVIKIDRLSRTPRDNMVLKLVLNFFRNVIAIEPGEFTINTKKSMPKKGITSIDTLPPNVSMDDISLNTVISSFHKNKVFGFLLTLTSSLSKEFDQDFINIPLLEIMFYFTKDVNQELLFPRQFETGTHSKVVNKNESSSANNIVTSAGFELSKLLQKEHQMRKNVIKHTSARHSRFGGLLSIQTPDKTRLTVSGSQALVDEKIALQKLDDSKKWNKRIIKKHQSVAAEGLPNSLLNSQTGKAIFFTESNGKHFKEFINNFIDSGFNILLHSVTNYFTTEQDRMVTLEQVEYLLFFAWFVKYQLLRSKIDNSADIKQVSEALKEVTFILVSSLLRSAYDLKNWTVTHAGMIAFNELLNLVSRTKAAQEEDSTDIEFIVSRLFSDERIQLLSNLPKIGSKYSLQFMKSCIELTHSVLKVLEQYSDDKTLVIEGKSRRQKKFNISEGDITKLIEEENVDRDEALDILTSSLRSIEVNFQKVQANYMTEPVIETYINFLERFRELEDDSIKKVFSFFHRVFVQAKEQALLFRFDLIILLREMLSPDGLDRMSRSRKYVSQFSDYFLARLKKRLKKSPAWFVGLLFPPLHNSEVGFYQRYGEYNVLNNESMYAAPASQFKPIPDEEALPPSILLDMKYGVLVSTLLDDGKTELLDQLLKHITHTLDIFKSWLTVNVNAGKETVNPPNEYFTLTGVLNNDPIFKDKDYRALLLLIGYSIPRKINEPCFLPGTVEVSDLTVSCELVKKYLSTPFETPNGLPSSSYLLRVRSEKDSFSHNEQDGWEGDDDYDYNDPYIVPDDQILSKSDAAYFKDLDNNASDKLKGTKFSKGIARSKKKDKRKRRKGEAKTNLPMFGDQDDERPQTVRERHGVFSKEFISDSEDDEDLMNPIFFENETYMRWLLDKNNGQLTEDRYIQFAKFAAERMNNGGVVTGDYTSLFGGSIPSIESIRATESSSFAPDKSLISLASHVASEMSIFDVNNNNNNQLSDDDVNSESRNSLGSSQPSNSQNMFQSEVYSRKESTKRSLEASAADESDEDEEAIRLFGKKSRVVLSQGDSDD
B2: His-Csm3 (protein, UniProt Q04659 1-317)
chain: MDQDFDSLLLGFNDSDSVQKDPTVPNGLDGSVVDPTIADPTAITARKRRPQVKLTAEKLLSDKGLPYVLKNAHKRIRISSKKNSYDNLSNIIQFYQLWAHELFPKAKFKDFMKICQTVGKTDPVLREYRVSLFRDEMGMSFDVGTRETGQDLERQSPMVEEHVTSAEERPIVADSFAQDKRNVNNVDYDNDEDDDIYHLSYRNRRGRVLDERGNNETVLNNVVPPKEDLDALLKTFRVQGPVGLEENEKKLLLGWLDAHRKMEKGSMTEEDVQLIQSLEEWEMNDIEGQHTHYDLLPGGDEFGVDQDELDAMKEMGF

Molecular target: T1, Mrc1-Flag (S. cerevisiae) (UniProt P25588)
T1 sequence: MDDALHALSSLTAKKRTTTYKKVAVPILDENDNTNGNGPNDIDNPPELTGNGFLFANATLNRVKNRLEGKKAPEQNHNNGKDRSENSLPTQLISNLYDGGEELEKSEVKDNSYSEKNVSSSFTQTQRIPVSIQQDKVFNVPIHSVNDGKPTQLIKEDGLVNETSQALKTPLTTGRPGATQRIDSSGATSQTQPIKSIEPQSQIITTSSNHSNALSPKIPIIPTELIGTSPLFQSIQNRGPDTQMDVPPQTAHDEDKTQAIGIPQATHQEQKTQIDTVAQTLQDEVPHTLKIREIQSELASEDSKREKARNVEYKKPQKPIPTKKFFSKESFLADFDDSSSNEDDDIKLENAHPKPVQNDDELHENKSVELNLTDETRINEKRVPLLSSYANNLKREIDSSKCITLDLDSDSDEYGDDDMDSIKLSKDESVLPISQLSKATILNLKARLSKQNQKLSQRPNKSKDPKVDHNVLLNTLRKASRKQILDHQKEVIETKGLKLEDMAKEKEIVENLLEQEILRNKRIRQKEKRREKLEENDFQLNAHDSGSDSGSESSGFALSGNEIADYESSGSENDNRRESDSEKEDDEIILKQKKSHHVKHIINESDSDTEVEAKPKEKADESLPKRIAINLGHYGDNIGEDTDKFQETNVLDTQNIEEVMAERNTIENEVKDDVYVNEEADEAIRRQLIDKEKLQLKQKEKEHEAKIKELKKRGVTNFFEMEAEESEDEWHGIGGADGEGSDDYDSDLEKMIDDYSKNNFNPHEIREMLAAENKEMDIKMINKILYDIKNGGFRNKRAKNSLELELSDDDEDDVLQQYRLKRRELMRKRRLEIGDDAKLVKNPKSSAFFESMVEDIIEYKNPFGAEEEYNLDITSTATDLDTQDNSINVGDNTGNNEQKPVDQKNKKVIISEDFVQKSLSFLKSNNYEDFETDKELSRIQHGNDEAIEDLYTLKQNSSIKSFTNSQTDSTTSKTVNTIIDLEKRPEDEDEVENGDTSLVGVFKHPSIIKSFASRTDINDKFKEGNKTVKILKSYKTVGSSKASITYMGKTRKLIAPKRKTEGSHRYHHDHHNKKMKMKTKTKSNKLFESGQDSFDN
Assay: co-purification of co-expressed subunits (anti-FLAG affinity, then Superose 12 gel filtration); Mrc1-Flag, Tof1 and His-Csm3 co-expressed in yeast; extract bound to anti-Flag M2 resin in 250 mM K glutamate, 50 mM HEPES pH 7.5, 1 mM EDTA; eluted with 3X FLAG peptide; Superose 12 in 2X PBS with 10% glycerol; fractions on SDS-PAGE

Row | Binder | binding
1 | B1 | binds
2 | B2 | binds
